The other results are listed elsewhere or left out.

The chains behind the UniProt entries cited, without tags or fusion partners. Where a name states a change or a piece, a line headed by the entry shows the natural chain unless it says otherwise.
UniProt Q9UKK3: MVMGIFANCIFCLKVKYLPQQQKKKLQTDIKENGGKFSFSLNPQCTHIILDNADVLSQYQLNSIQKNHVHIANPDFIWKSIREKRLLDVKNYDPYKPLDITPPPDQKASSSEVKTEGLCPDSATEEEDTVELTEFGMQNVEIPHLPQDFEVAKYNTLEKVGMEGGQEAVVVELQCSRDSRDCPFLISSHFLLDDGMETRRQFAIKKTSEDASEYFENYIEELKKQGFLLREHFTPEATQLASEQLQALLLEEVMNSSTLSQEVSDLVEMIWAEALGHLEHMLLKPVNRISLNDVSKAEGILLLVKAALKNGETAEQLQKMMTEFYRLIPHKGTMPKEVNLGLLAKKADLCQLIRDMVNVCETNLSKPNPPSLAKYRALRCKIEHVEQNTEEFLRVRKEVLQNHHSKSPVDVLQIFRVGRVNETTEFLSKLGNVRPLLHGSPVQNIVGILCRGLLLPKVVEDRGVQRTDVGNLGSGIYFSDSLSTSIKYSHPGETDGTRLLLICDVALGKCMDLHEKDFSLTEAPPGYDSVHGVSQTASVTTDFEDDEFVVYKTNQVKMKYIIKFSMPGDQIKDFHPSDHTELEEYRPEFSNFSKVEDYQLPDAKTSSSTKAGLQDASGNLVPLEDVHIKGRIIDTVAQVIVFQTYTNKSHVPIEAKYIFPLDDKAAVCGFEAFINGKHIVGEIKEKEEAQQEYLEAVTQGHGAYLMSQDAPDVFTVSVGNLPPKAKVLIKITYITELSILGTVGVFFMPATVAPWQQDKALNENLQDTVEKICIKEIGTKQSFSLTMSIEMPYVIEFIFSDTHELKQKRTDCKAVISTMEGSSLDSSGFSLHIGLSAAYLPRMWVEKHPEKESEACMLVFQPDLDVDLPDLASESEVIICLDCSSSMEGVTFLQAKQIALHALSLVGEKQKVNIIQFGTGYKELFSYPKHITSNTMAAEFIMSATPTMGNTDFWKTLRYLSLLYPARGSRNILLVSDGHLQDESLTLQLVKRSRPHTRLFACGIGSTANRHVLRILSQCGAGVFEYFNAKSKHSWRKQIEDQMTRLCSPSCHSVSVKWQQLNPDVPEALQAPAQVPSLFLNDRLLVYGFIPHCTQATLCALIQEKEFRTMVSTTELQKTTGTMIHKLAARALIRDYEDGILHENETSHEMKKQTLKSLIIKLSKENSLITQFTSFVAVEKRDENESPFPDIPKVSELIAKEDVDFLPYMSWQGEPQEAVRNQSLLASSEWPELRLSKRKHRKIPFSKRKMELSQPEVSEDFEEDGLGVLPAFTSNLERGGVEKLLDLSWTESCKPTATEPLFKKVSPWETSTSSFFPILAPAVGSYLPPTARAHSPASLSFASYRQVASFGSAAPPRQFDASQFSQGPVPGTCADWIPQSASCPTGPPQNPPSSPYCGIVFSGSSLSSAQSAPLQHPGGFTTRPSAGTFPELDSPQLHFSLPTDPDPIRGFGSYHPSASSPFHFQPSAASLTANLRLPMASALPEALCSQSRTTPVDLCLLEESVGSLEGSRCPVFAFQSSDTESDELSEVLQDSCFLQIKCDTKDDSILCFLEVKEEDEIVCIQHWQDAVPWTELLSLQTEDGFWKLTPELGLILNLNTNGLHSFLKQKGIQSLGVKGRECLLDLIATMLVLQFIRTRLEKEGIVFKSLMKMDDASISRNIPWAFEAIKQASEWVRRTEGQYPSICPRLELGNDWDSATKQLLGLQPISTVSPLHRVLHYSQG
UniProt Q9BY49: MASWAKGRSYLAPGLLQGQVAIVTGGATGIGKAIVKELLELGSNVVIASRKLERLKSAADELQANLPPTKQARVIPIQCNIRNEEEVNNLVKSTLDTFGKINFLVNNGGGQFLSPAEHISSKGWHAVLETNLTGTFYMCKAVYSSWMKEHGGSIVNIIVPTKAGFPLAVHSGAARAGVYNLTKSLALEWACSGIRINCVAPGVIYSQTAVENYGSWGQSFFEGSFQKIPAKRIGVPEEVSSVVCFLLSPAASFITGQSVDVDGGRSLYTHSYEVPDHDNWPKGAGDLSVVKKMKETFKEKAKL
UniProt P60673: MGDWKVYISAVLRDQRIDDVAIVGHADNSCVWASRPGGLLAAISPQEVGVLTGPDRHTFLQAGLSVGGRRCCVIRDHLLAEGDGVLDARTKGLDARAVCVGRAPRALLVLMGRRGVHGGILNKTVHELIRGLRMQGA
UniProt Q96MG8: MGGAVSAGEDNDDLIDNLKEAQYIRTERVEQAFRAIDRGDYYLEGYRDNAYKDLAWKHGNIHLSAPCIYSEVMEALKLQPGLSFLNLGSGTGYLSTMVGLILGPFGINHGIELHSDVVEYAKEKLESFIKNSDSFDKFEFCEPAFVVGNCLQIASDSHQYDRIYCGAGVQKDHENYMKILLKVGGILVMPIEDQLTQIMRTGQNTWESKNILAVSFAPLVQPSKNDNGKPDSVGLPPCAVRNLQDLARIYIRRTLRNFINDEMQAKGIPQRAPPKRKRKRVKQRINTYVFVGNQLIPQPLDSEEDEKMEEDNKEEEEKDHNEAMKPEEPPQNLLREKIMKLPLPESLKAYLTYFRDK
UniProt Q8N8D1: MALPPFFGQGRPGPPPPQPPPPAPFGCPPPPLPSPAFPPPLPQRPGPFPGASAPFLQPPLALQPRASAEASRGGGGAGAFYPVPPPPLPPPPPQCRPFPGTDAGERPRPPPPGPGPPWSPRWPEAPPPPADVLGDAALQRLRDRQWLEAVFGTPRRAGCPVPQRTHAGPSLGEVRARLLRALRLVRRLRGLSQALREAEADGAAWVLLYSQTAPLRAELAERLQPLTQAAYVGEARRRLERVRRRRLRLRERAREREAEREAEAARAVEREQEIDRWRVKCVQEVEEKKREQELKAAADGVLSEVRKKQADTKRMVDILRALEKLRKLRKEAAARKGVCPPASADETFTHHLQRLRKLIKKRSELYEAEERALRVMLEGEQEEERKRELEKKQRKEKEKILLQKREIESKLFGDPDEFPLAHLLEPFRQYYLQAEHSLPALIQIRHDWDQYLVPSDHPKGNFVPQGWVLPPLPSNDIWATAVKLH
UniProt Q9BSM1: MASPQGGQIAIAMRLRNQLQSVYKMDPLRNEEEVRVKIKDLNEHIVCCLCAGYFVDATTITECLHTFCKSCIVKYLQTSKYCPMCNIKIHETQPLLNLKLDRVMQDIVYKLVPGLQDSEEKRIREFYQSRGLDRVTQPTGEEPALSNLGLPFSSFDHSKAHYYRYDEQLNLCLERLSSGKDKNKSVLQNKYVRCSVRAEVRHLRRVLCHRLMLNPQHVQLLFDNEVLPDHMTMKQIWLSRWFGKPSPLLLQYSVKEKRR

The source of these data is the supplement of paper PMC10849652.

Holding throughout (test): log2 fold change, soluble protein after heating vs DMSO (PISA); higher = thermal stabilisation; K562 lysate, 10 uM; active = over 0.2 and 3.5 SD of the protein, either way, in both replicates (recomputed)
Compound in one test: COc1cc(Nc2ncc3c(n2)-c2ccc(Cl)cc2C(c2c(F)cccc2OC)=NC3)ccc1C(=O)O [alisertib]
An outline of the steps: (§1)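 K562 pellets were dounce-homogenised in PBS pH 7.4 containing 1 mM MgCl2, and the crude extract, at 1 mg/mL protein, was exposed to 10 μM compound for 30 min. Aliquots were heated for 3 min across 48°C-58°C, pooled, brought to 0.5% NP-40 at 4°C and spun at 21,000xg for 90 min, with the supernatant taken as soluble protein. TMTpro 16plex LC-MS/MS with equalised channel sums quantified that protein. Values are log-two fold changes in thermal stability relative to solvent controls, taken from duplicates.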

Compound in test [1]: COc1cc2nc(-c3cc(F)ccc3O)nc(N[C@@H]3CNC[C@H]3C(C)(C)O)c2cc1OC
An outline of the steps:
as §1

Compound in another test: COc1cc2ncnc(Nc3ccc(F)c(Cl)c3)c2cc1OCCCN1CCOCC1 [gefitinib]
In a few lines:
as §1

Compound in another test: CS(=O)(=O)CCNCc1ccc(-c2ccc3ncnc(Nc4ccc(OCc5cccc(F)c5)c(Cl)c4)c3c2)o1 [lapatinib]
An outline of the steps:
as §1

Compound in a further test: CS(=O)(=O)N1CCN(Cc2cc3nc(-c4cccc5[nH]ncc45)nc(N4CCOCC4)c3s2)CC1 [pictilisib]
In a few lines: as §1

Compound in a further test: C[C@@H](Oc1cc(-c2cnn(C3CCNCC3)c2)cnc1N)c1c(Cl)ccc(F)c1Cl [crizotinib]
In a few lines: as §1

Compound in another test: Cc1ccc(-n2nc(C(C)(C)C)cc2NC(=O)Nc2ccc(OCCN3CCOCC3)c3ccccc23)cc1 [doramapimod]
In a few lines:
as §1

Compound in another test: Cc1ccc(NC(=O)c2ccc(CN3CC[C@H](N(C)C)C3)c(C(F)(F)F)c2)cc1Nc1nccc(-c2cncnc2)n1 [bafetinib]
An outline of the steps: as §1

Compound in the next test: CN1CC[C@H](c2c(O)cc(O)c3c(=O)cc(-c4ccccc4Cl)oc23)[C@H](O)C1 [alvocidib]
In a few lines:
as §1

Compound in test [2]: CNC(=O)C1=CC=CC=C1NC2=NC(=NC=C2Cl)NC3=C(C=C(C=C3)N4CCOCC4)OC
An outline of the steps: as §1

Compound in test [3]: CNc1nc(-c2ccc3c(N)n[nH]c3c2)cc(N2C[C@@H](C(=O)NC3CCCCC3)CC[C@H]2C)n1
An outline of the steps:
as §1

Compound in another test: COC(=O)N[C@@H](C)CNc1nccc(-c2cn(C(C)C)nc2-c2cc(Cl)cc(NS(C)(=O)=O)c2F)n1 [encorafenib]
In a few lines: as §1

Compound in test [4]: COC(=O)[C@H](CCSC)NC(=O)C1=C(C=C(C=C1)NC[C@H](CS)N)C2=CC=CC=C2
In a few lines:
as §1

Compound in test [5]: C[C@H](C1=CC=C(C=C1)C(=O)NC2=C3C=CNC3=NC=C2)N
An outline of the steps:
as §1

Compound in a further test: C[C@H](Nc1ncnc2nc[nH]c12)c1cc2cccc(Cl)c2c(=O)n1-c1ccccc1 [duvelisib]
An outline of the steps:
as §1

Compound in a further test: Cc1cc(Nc2cc(CN3CCOCC3)c3nc(C)c(Cc4ccc(Cl)cc4F)n3n2)n[nH]1 [gandotinib]
An outline of the steps: as §1

Compound in the next test: Cc1cc(Nc2cc(N3CCN(C)CC3)nc(Sc3ccc(NC(=O)C4CC4)cc3)n2)n[nH]1 [tozasertib]
In a few lines: as §1

Compound in test [6]: Cc1cccc(CC(=O)N2CCc3c2ccc(-c2cn(C)c4ncnc(N)c24)c3F)n1
In a few lines:
as §1

Compound in another test: CNC(=O)c1ccc(Nc2ncc(C(F)(F)F)c(NCc3nccnc3N(C)S(C)(=O)=O)n2)cc1 [defactinib]
An outline of the steps: as §1

Compound in another test: CN1CCc2c(c3ccccc3n2Cc2ccc(C(=O)NO)cc2)C1 [Tubastatin A]
An outline of the steps: as §1

PGD (UniProt K7EPF6): the log2 fold change in the test with alisertib is inactive: -0.001; in test [1] it was inactive: 0.104; in the test with gefitinib, inactive: -0.094; in the test with lapatinib it was inactive: -0.158; with pictilisib it was inactive: -0.414; with crizotinib, inactive: -0.163. The values for the log2 fold change with doramapimod and with bafetinib were inactive: 0.045 and inactive: -0.412, respectively.
Consider PARP4 (UniProt Q9UKK3), for which the log2 fold change is inactive: 0.004 with alvocidib; inactive: -0.011 in [2]; inactive: -0.056 in test [3]; inactive: 0.034 with encorafenib; inactive: 0.036 in test [4]; inactive: -0.047 with alisertib. Further, the log2 fold change is inactive: 0.196 in test [1]; inactive: -0.183 with gefitinib; inactive: 0.153 in the test with lapatinib; inactive: -0.014 in the test with pictilisib; inactive: -0.053 with crizotinib; inactive: 0.026 in [5]. Besides, the log2 fold change in the test with duvelisib is inactive: -0.08; with gandotinib, inactive: -0.034; with tozasertib, inactive: -0.189; with doramapimod it was inactive: -0.044; with bafetinib, inactive: -0.085; in test [6], inactive: 0.042.
Consider PECR (UniProt Q9BY49), for which the log2 fold change is inactive: 0.101 with encorafenib, inactive: -0.184 in test [4] and inactive: -0.053 in the test with tozasertib.
Turning to PDE4DIP (UniProt E9PS60), the log2 fold change in the test with alvocidib was inactive: -0.111; in test [2], inactive: -0.02; in the test with defactinib, inactive: 0.056; in test [3] it was inactive: -0.089; in the test with encorafenib, inactive: -0.059; in [4], inactive: -0.039. In addition, the log2 fold change in the test with alisertib is inactive: 0.013; with gefitinib, inactive: 0.005; with crizotinib, inactive: -0.034; in test [5], active: -0.688; with duvelisib, inactive: -0.077; in the test with gandotinib it was inactive: 0.233. Moreover, the log2 fold change with tozasertib is inactive: -0.026; with doramapimod, inactive: 0.075; in test [6] it was inactive: 0.147.
Regarding PARP9 (UniProt Q8IXQ6), the log2 fold change with Tubastatin A is inactive: 0.058; in test [2], inactive: -0.126; with defactinib it was inactive: -0.035; in test [3], inactive: -0.189; with encorafenib, inactive: 0.038; in [4], inactive: 0.119. Moreover, the log2 fold change in test [1] is inactive: 0.079; in the test with lapatinib it was inactive: -0.05; with pictilisib, inactive: -0.023; with crizotinib it was inactive: -0.224; with duvelisib it was inactive: -0.01; with tozasertib, inactive: -0.052. Besides, the log2 fold change with doramapimod is inactive: 0.043; with bafetinib it was inactive: 0.224.
For the target PFN3 (UniProt P60673), the log2 fold change with alvocidib is inactive: -0.182; in the test with defactinib it was inactive: -0.109; with encorafenib, inactive: 0.125; in test [4] it was inactive: -0.28; with alisertib, inactive: -0.047; in [1], inactive: 0.154. The log2 fold change was inactive: 0.075 with gefitinib; inactive: -0.199 in the test with lapatinib; inactive: -0.046 with crizotinib; inactive: -0.458 in test [5]; inactive: 0.119 in the test with gandotinib; inactive: 0.155 with tozasertib. Besides, the results for the log2 fold change (in the test with doramapimod; in test [6]) were inactive: 0.083 and inactive: 0.193, respectively.
For the target PEX5 (UniProt J3KPV0), the log2 fold change in the test with Tubastatin A is inactive: -0.043; with defactinib, inactive: 0.209; with encorafenib, inactive: -0.042; in test [4], inactive: 0.054; with tozasertib, inactive: 0.19.
Take PCMTD1 (UniProt Q96MG8): the log2 fold change in the test with defactinib was inactive: -0.006; with encorafenib, inactive: -0.022; in test [4], inactive: -0.053; in the test with tozasertib it was inactive: 0.051.
Regarding PDCD7 (UniProt Q8N8D1), the log2 fold change was inactive: 0.197 with encorafenib; inactive: -0.044 in [4]; inactive: -0.096 with crizotinib; inactive: 0.105 with tozasertib; inactive: 0.202 with doramapimod.
Take PCGF1 (UniProt Q9BSM1): the log2 fold change with alvocidib is inactive: -0.044; in test [2] it was inactive: 0.026; in the test with defactinib, inactive: -0.174; in test [3] it was inactive: -0.274; with encorafenib, inactive: 0.06; in test [4] it was inactive: 0.116. For the same target, the log2 fold change in test [5] was inactive: -0.167; in the test with duvelisib, inactive: -0.083; with gandotinib, inactive: 0.143; with tozasertib it was inactive: -0.108; in test [6] it was inactive: 0.235.
